Some of these results come from one statement about several compounds together.
Test system: HEK293 cells
Assay: Measurement of intracellular α-ketoglutarate (glutamate dehydrogenase assay)
Assay type: cell-based, human
Settings: 1 mM, 5 hours, basal level approximately 100 μM

With CCCCCCCCOC(=O)C(=O)CCC(=O)O [octyl-α-ketoglutarate, 2-Oxo-pentanedioic acid 1-octyl ester] the “Intracellular α-ketoglutarate level” value was 350 to 400 µM.
